The source of these data is patent US20110086770A1.

The assay concerns the target T1, recombinant mouse IL-23R/Fc chimera (R&D Systems) (mouse) (UniProt Q8K4B4).
T1 sequence (looked up): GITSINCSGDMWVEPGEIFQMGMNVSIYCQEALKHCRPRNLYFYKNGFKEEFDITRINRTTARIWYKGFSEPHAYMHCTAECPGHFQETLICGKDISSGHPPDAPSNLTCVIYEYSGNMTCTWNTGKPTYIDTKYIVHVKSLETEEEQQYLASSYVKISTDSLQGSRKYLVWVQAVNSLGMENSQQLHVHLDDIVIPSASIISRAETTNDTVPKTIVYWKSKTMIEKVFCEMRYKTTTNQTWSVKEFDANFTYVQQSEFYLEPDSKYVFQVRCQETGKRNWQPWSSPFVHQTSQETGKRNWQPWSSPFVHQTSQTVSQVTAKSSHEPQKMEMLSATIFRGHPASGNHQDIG
The assay is described as follows: phage ELISA on mouse IL-23R/Fc.

These are yes or no findings as the source states them, for the method shown. Some binding calls cover weakened binding; strength is not graded here. Sequences can lack the tags named with a protein.

B1: 105-106-6F1 (phage-displayed mouse TN CTLD clone) (designed binder)
chain: ALQTVCLKGTKVNLKCLLAFTQPKTFHEASEDCISQGGTLGTPQSELENEALFEYARHSVGNDANIWLGLNPGPGTRWWVDMTGGLLAYKNWETEITTQPDGGRSKSGENCAALSGAANGKWFDKRCRDQLPYICQFAIV
Take B1: the binding entry is given as “binds”.
